Laboratory results as given in the supplement of paper PMC12889115.
Some of the results follow. These are raw signals, not scaled to a control.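 First-pass screen: polymyxin B was added at a level that permeabilizes the Salmonella outer membrane while sparing the inner membrane. DMSO wells, with and without polymyxin B, defined maximum growth. Because plates differed from one another, each plate's data were ranked separately and the compounds with the lowest OD600 were carried forward as hits.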

Tested on: Salmonella enterica serovar Typhimurium SL1344
Experiment: bacterial growth OD600 after 18 h with compound and polymyxin B; higher = more bacterial growth (less inhibition)
Conditions: 50 µM, Mueller-Hinton broth

SMILES	bacterial growth OD600 (polymyxin B 1 µg/mL)	bacterial growth OD600 (polymyxin B 0.75 µg/mL)
O=C(c1cn(Cc2cccc3ccccc23)nn1)N1CCN(C(=O)c2cccs2)CC1	0.912	
COC(=O)[C@]1(C)C[C@H](C(=O)NCC(F)(F)F)[C@H](c2ccccc2Cl)N1C		0.954
COc1ccc(CN(Cc2cc3c(OC)ccc(OC)c3nc2N(C)C)C(=O)c2ccc(F)cc2)cc1		0.036
Cc1ccc2c(c1)CN(CCC(=O)NC1CCc3ccccc31)CC(C)O2 (stereo unspecified)		0.756
COCC(=O)NCc1cccnc1N1CCN(c2ccccc2C)CC1	0.8	
COc1ccc(NC2CCCN(C(=O)c3ccc4ncccc4c3)C2)cc1OC (stereo unspecified)	1.17	
CC(Cc1ccsc1)NC(=O)c1coc(COc2ccc3c(c2)OCO3)n1 (stereo unspecified)	0.872	
Cc1c(CC(=O)NCc2ccon2)c2c(n1Cc1ccccc1F)CCCC2=O	1.18	
Fc1ccc(CNCc2cccnc2N2CCOCC2)cc1F	0.878	
COc1ccc(CN2CC[C@@H](N3CCC(O)CC3)[C@H](O)C2)c(F)c1		0.75
CCOC(=O)C1CCCN(Cc2cn(C)nc2-c2cccc(Cl)c2)C1 (stereo unspecified)	0.843	
COc1cccc(CN2CCN(Cc3c(C)cc(C)cc3-n3cccn3)CC2CCO)c1 (stereo unspecified)	0.555	
CCC1CN(C(=O)c2ccc(NCc3cnn(C)c3)nc2)CCN1C(C)C (stereo unspecified)	0.821	
c1cnc(N2CCC(C3CCN(C4CCSCC4)C3)CC2)nc1 (stereo unspecified)		0.781
Cc1ccc(C(=O)N2CCC(CCC(=O)NCc3cccnc3)CC2)s1		0.833
C=CCn1cc(CNC2CC(C)(C)Cc3nc(N4CCOCC4)ncc32)c(C)n1 (stereo unspecified)		0.804
CCOC(=O)c1c(C)[nH]c(C(=O)N2CCC3(CCCN(CC4CC4)C3)C2)c1C (stereo unspecified)	1.23	
CC(=O)N1CCC(C(=O)N2CCCC(Nc3ccc(C)c(C)c3)C2)CC1 (stereo unspecified)	0.902	
COCc1noc(-c2ccc(N3CCC4(CC3)OCCO4)nc2)n1	0.976	
Cc1ccc(CN2CC[C@@H](N3CCN(c4ccccn4)CC3)[C@H](O)C2)s1	0.879	
O=C1OCCN1CCNC(=O)C1(N2CCCCC2)Cc2ccccc2C1		0.688

An excerpt of these results, comma-delimited.
SMILES,bacterial growth OD600 (polymyxin B 1 µg/mL),bacterial growth OD600 (polymyxin B 0.75 µg/mL)
COCC(=O)NCc1cccnc1N1CCN(c2ccccc2C)CC1,0.8,
COc1ccc(NC2CCCN(C(=O)c3ccc4ncccc4c3)C2)cc1OC (stereo unspecified),1.17,
C=CCn1cc(CNC2CC(C)(C)Cc3nc(N4CCOCC4)ncc32)c(C)n1 (stereo unspecified),,0.804
CCOC(=O)c1c(C)[nH]c(C(=O)N2CCC3(CCCN(CC4CC4)C3)C2)c1C (stereo unspecified),1.23,
CC(=O)N1CCC(C(=O)N2CCCC(Nc3ccc(C)c(C)c3)C2)CC1 (stereo unspecified),0.902,
